# Percent effect of library compounds

Chains of the proteins cited; added tags and fusions are not shown. Residues count along the entry.
UniProt A4I591, 1-473: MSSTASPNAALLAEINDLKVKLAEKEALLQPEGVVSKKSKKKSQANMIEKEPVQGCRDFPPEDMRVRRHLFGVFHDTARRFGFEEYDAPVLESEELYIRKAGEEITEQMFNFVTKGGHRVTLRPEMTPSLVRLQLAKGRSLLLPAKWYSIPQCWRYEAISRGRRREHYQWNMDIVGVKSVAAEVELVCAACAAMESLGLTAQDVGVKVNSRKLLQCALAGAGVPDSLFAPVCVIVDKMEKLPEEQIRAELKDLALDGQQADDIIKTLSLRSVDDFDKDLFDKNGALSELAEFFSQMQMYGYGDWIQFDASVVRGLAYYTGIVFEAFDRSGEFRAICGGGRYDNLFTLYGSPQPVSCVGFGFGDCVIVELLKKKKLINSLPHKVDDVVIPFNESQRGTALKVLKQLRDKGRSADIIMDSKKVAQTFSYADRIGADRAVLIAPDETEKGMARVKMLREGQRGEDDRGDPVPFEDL
UniProt Q4DA54, 1-478: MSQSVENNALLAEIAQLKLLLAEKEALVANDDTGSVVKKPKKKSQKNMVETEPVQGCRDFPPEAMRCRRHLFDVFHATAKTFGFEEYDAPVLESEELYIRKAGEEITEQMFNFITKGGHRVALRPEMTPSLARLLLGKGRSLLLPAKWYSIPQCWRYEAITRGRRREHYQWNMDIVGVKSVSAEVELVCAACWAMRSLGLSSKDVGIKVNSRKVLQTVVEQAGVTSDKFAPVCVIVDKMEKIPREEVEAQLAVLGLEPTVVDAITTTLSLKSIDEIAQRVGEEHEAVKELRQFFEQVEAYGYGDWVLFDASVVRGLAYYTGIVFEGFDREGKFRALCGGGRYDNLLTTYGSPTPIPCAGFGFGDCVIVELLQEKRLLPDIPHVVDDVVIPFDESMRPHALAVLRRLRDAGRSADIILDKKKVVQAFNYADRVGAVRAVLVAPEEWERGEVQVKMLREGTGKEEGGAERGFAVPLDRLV
UniProt Q8IDJ8, 1-583: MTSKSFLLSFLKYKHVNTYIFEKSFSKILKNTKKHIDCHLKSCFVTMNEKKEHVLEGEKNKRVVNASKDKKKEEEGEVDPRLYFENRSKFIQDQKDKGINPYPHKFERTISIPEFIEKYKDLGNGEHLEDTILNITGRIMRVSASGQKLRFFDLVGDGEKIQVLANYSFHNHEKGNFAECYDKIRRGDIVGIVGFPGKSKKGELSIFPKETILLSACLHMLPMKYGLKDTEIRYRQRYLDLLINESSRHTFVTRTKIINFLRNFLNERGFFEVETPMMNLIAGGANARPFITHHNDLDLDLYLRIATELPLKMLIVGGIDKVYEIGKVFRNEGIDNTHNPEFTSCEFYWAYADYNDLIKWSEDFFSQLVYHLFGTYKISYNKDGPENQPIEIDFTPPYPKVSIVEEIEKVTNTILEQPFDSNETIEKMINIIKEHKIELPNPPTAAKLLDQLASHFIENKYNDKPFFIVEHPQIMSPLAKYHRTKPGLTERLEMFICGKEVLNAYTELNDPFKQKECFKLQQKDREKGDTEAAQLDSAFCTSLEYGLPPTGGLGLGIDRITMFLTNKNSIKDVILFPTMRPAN

LiHisRS: 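Histidine-tRNA ligase, Leishmania infantum (UniProt A4I591). Enzyme assay of histidyl-tRNA synthetase; the read-out is not stated. Tested at 30 µM. Higher reads as stronger inhibition (inferred: compounds with an IC50 in retests scored well above the rest). The assay is labelled LdHisRS but filed under L. infantum. Size under these conditions: about 69,000 compounds, about 410 of them at 50% or above in at least one test.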
TcHisRS: 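Histidine-tRNA ligase, Trypanosoma cruzi CL Brener (UniProt Q4DA54). Enzyme assay of histidyl-tRNA synthetase; the read-out is not stated. Concentration: 30 µM. The record gives no direction; compounds that gave an IC50 in retests scored well above the rest, so higher reads as stronger inhibition. About 69,000 compounds were tested under these conditions; 0.045% (about 31) showed 50% or more at least once.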
PfKRS1: 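Lysine-tRNA ligase, Plasmodium falciparum 3D7 (UniProt Q8IDJ8). Enzyme assay of the cytosolic lysyl-tRNA synthetase in 384-well plates, read by luminescence. Tested at 30 µM. Higher reads as stronger inhibition, judged from the few compounds that gave an IC50. About 69,000 compounds were tested under these conditions; 0.071% (about 49) showed 50% or more at least once.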
Leishmania in macrophages: 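Cell assay of Leishmania donovani living inside macrophages; the read-out is not stated. Compounds at 30 µM. Higher reads as stronger inhibition (inferred: compounds with an IC50 in retests scored well above the rest). About 69,000 compounds were tested under these conditions; 1.5% (about 1,000) showed 50% or more at least once.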

Results are given as percent effect. The record does not define 0% and 100%; most values in the screen are far below 50% and negative numbers occur (in some assays of this library far below -100). Compounds were drawn at random from those tested, without regard to their results. Two or more numbers in one place are separate tests of the same structure; such repeats can differ widely. A dash means the value is not listed here; it may have been measured.

| # | Compound | LiHisRS | TcHisRS | PfKRS1 | Leishmania in macrophages |
|---|---|---|---|---|---|
| 1 | `COCCN1C[C@@H](C)[C@@]2(COCCN(C(=O)c3cccs3)C2)C1` | -2.778 | 4.478 | -2.178 | - |
| 2 | `CCc1ccc(NC(=O)c2cnc(N3CCCC3)nc2C)cc1` | 22.83 | 8.911 | 4.55 | 10.84 |
| 3 | `[H][C@]12CCN(C(=O)c3cnc(C)cn3)C[C@@]1([H])OCCN(c1ncccn1)C2` | - | - | - | 15.11 |
| 4 | `O=C(O)C(F)(F)F.O=C(O)C(F)(F)F.[H][C@@]12COC[C@]1(COc1cccnc1)CN(Cc1ccc(OC)cc1)C2` | - | - | - | 25.62 |
| 5 | `c1ccc(-c2cc(NCCCC3CCOC3)n3nccc3n2)cc1` (configuration not stated) | 12.9 | 5.759 | 4.989 | 43.51 |
| 6 | `CC(C)CN1CCS(=O)(=O)[C@@H]2CCN(S(=O)(=O)c3ccccc3)CC[C@@H]21` | 14.04 | 4.301 | 0.512 | - |
| 7 | `[H][C@]12CN(C(=O)c3ccc(C)s3)C[C@@]1([H])OCCN(S(C)(=O)=O)C2` | - | - | - | 5.72 and 15.66 |
| 8 | `O=C(NCCn1nc(C2CCNC2)c2cccnc21)C1CCC1` (configuration not stated) | 17.71 | 9.574 | 6.981 | - |
| 9 | `CN1CCN(C(=O)C2(S(C)(=O)=O)CCCC2)Cc2ccccc21` | 0 | 1.235 | 3.765 | -16.02 |
| 10 | `[H][C@@]12OCCN(S(=O)(=O)c3cn(C)cn3)[C@@]1([H])CC[C@@H]2OCC1CC1` | - | - | - | 20.74 |
| 11 | `CN1CCCN(C(=O)NCc2cccnc2-n2cccn2)CC1` | 6.897 | 5.085 | 1.952 | 30.53 |
| 12 | `O=C(Cc1c[nH]c2ccccc12)N1CCC(Nc2cccnn2)CC1` | 0 | -2.662 | 6.974 | 14.1 |
| 13 | `CCCS(=O)(=O)N1CCC2(CC(=O)N(c3cnn(C)c3)C2)C1` (configuration not stated) | 22.22 | 1.493 | 10.4 | 15.59 |
| 14 | `CN(C)Cc1nn(C)c2c1CCN(C(=O)CC1CC1)C2` | 3.448 | 5.063 | 2.329 | - |
| 15 | `O=C(NCCCN1CCOCC1)c1ccc(-c2ccccc2)[nH]c1=O` | 10.67 | 3.804 | 8.292 | 13.22 |
| 16 | `O=C(NCC1CC1)C1CN(Cc2ccncc2)Cc2ccnn2C1` (configuration not stated) | 5.556 | -10.48 | -6.156 | - |
| 17 | `COc1ccc(COCC(O)CNC(=O)c2cc(C)oc2C)cc1` (configuration not stated) | -0.8696 | -2.254 | 0.3296 | 2.399 |
| 18 | `CCN(C)Cc1nc(-c2ccccc2NS(C)(=O)=O)oc1C` | 8.571 | 6.494 | 1.747 | 2.546 |
| 19 | `CCCc1cc(=O)[nH]c2nnc(SCC(=O)NCc3ccc(C)cc3)n12` | 17.31 | 4.132 | 1.449 | 11.28 |
| 20 | `CCCC(=O)N1CCC2(CC1)CC(NC(C)=O)c1ccccc1O2` (configuration not stated) | 0 | 3.759 | 1.522 | 9.131 |
| 21 | `NC1CCN(C(=O)c2c(F)cccc2Br)CC1` | 2 | -2.41 | 5.914 | - |
| 22 | `N#CC1(C(=O)Nc2ccc(OC(F)F)cc2)CCCC1` | 16.35 | 1.626 | -0.9264 | -1.542 |
| 23 | `CCc1ncc2c(n1)CN(C(C)C(=O)N1CCOCC1)CC2` (configuration not stated) | 13.7 | 12.02 | 2.578 | 15.56 |
| 24 | `CN(Cc1ccccn1)CC1CCCN1c1cccnn1` (configuration not stated) | 27.43 | 18.37 | 3.183 | 38.35 |
| 25 | `O=S(=O)(Cc1nc(C2CC2)no1)c1ccccc1F` | 9.302 | 4.762 | -0.5734 | 19.03 |
| 26 | `CC(=O)c1cc(CN2C[C@H]3CC[C@@H]2CN(Cc2c(C)noc2C)C3)cs1` | 10.96 | 8.108 | 1.932 | - |
| 27 | `Cc1ccc(-c2noc([C@@H]3C[C@H](NC(=O)CC(C)(C)C)CN3C)n2)cc1` | 13.51 | 5.473 | 0.9412 | 19.42 |
| 28 | `CN(Cc1cc(C2CC2)[nH]n1)C(=O)c1cnn2ccn(C)c12` | 14.29 | 14.85 | 0.4034 | 2.213 |
| 29 | `COc1ccc(S(=O)(=O)NCc2cccnc2N(C)C)cc1F` | 1.124 | 3.759 | 10.35 | 58.31 |
| 30 | `CN(C)c1nc2c(c(NCc3cc(O)ncn3)n1)CCCC2` | 22.86 | 2.597 | 2.977 | 8.788 |
| 31 | `Cc1nc(C(F)(F)F)nc(N2CCC3(CC2)CC(C(=O)O)N(C)C3)c1C` (configuration not stated) | 15.87 | 1.538 | 2.087 | 11.33 |
| 32 | `[H][C@@]12CCCN1CCCN(Cc1cnc(NCc3ccccc3)nc1)C2` | - | - | - | -8.265 |
| 33 | `CC(C)CN1C(=O)C2(CCN(Cc3ccsc3)C2)c2ccccc21.O=C(O)C(F)(F)F` (configuration not stated) | - | - | - | -5.079 |
| 34 | `Cc1nc(C2CCCN(C(=O)c3ccc(Cl)cn3)C2)no1` (configuration not stated) | 7.143 | 1.153 | 0.4218 | 6.936 |
| 35 | `OCC1CCCN1c1cc(NCCc2nccs2)ncn1` (configuration not stated) | 20.48 | 1.22 | 6.672 | 55.11 |
| 36 | `[H][C@]12CC[C@]([H])(CN(C(=O)N(C)C)C1)N(C(=O)c1cc(C(C)C)oc1C)C2` | - | - | - | -5.539 |
| 37 | `CS(=O)(=O)N[C@@H]1CN(C(=O)c2cccnc2)[C@@H]2CCCO[C@@H]21` | 8.257 | 7.563 | 4.515 | - |
| 38 | `CC(C)CCN1CCN(Cc2nc(C(C)C)no2)CC1` | 14.75 | 2.326 | 5.061 | 26.3 |
| 39 | `O=C(c1ccc[nH]1)N1CCc2cc(S(=O)(=O)N3CCOCC3)ccc2C1` | 26.53 | 15 | -2.766 | 17.1 |
| 40 | `O=C(O)C(F)(F)F.O=C(O)C(F)(F)F.[H][C@@]12COC[C@@H](CC(=O)NCc3cccnc3)[C@]1([H])CN(CC1CC1)C2` | - | - | - | 54.71 |
| 41 | `Cc1cn2c(CN(C)C(=O)c3cccnc3O)c(C)nc2s1` | 10.96 | 5.946 | 3.242 | 27.67 |
| 42 | `c1ccc(CCNCC2Cn3nncc3CO2)cc1` (configuration not stated) | 10 | 8.046 | 1.017 | - |
| 43 | `O=C(CN1CCc2cncnc2C1)NC1CCCCNC1=O` (configuration not stated) | 16.67 | 12.75 | 4.739 | 3.811 |
| 44 | `OCC1CCCN(c2ncnc3c2Cc2ccccc2OC3)C1` (configuration not stated) | 29.17 | -5.797 | 6.686 | 25.01 |
| 45 | `O=C(O)C(F)(F)F.[H][C@]12CCC[C@@]1(COCc1csc(C)n1)CN(Cc1cc(C)on1)C2` | - | - | - | -2.312 |
| 46 | `O=C(O)C(F)(F)F.O=C(O)C(F)(F)F.O=C(O)C(F)(F)F.[H][C@@]12CN(Cc3cccnc3)C[C@]1([H])CN(S(=O)(=O)c1cn(C)cn1)C2` | - | - | - | -3.182 and -71.93 |
| 47 | `CCOCC1CN(c2ccncn2)Cc2cnn(CC)c21.O=C(O)C(F)(F)F.O=C(O)C(F)(F)F` (configuration not stated) | - | - | - | 26.76 |
| 48 | `COCCCNC(=O)c1cc(-c2cnc(N3CCOCC3)nc2)cn1C.O=C(O)C(F)(F)F` | - | - | - | 0.5385 |

Some entries from above, unchanged:

Compound	LiHisRS	TcHisRS	PfKRS1	Leishmania in macrophages
CCN(C)Cc1nc(-c2ccccc2NS(C)(=O)=O)oc1C	8.571	6.494	1.747	2.546
O=C(c1ccc[nH]1)N1CCc2cc(S(=O)(=O)N3CCOCC3)ccc2C1	26.53	15	-2.766	17.1
Cc1nc(C2CCCN(C(=O)c3ccc(Cl)cn3)C2)no1 (configuration not stated)	7.143	1.153	0.4218	6.936
CN1CCCN(C(=O)NCc2cccnc2-n2cccn2)CC1	6.897	5.085	1.952	30.53
COc1ccc(COCC(O)CNC(=O)c2cc(C)oc2C)cc1 (configuration not stated)	-0.8696	-2.254	0.3296	2.399

Measurements from “University of Dundee, Small-Polar-MMV Screening Library” (2021), ChEMBL document CHEMBL3988442.